Measurements as given in patent US5227467A, “Immunosuppressive fluorinated cyclosporin analogs” (Merck & Co., Inc., priority 1991, dated 1993).
Not every detail of the peptide structures is certain; ends, links or a residue may be inferred. *1 amine or outer side, *2 acyl side, *3 side chain or, on linkers, in order; H or OH if unused. Where a SMILES comes first, the peptide text is derived from it. [ ]: non-standard residue; d: D form. NMe(dihydroBmt) = CCCC[C@@H](C)[C@@H](O)[C@H](NC)C(=O)O; X1 = CC(CF)[C@H](N[*:1])C(=O)[*:2]; NMeL = CN[C@@H](CC(C)C)C(=O)O; NMeV = CN[C@H](C(=O)O)C(C)C; Abu = CC[C@H](N)C(=O)O; Sar = CNCC(=O)O

Assays:
[1] = system: mouse T-cell cultures stimulated with ionomycin plus phorbol myristate acetate (PMA); experiment: T-cell proliferation assay (ionomycin plus PMA, MTT readout); format: cell-based; conditions: C57B1/6 mouse spleen T-cells, ionomycin 250 ng/ml + PMA 10 ng/ml, 44 hours; relative to cyclosporin A (CsA = 100)
[2] = system: cyclophilin; experiment: Cyclophilin binding assay (Handschumacher et al.); conditions: expressed relative to cyclosporin A (CsA = 100)

Compound	T-Cell Proliferation Inhibition [1] [% CsA's activity]	Cyclophilin Binding [2] [% CsA's activity]
CC[C@@H]1NC(=O)[C@H]([C@H](O)[C@H](C)CSC)N(C)C(=O)[C@H](C(C)C)N(C)C(=O)[C@H](CC(C)C)N(C)C(=O)[C@H](CC(C)C)N(C)C(=O)[C@@H](C)NC(=O)[C@H](C)NC(=O)[C@H](CC(C)C)N(C)C(=O)[C@H](C(C)CF)NC(=O)[C@H](CC(C)C)N(C)C(=O)CN(C)C1=O (some centres unmarked) [DMT MeVal 4-fluoro-Val]	10	240
C/C=C/C[C@@H](C)[C@@H](O)[C@H]1C(=O)N[C@@H](CC)C(=O)N(C)CC(=O)N(C)[C@@H](CC(C)C)C(=O)N[C@@H](C(C)C)C(=O)N(C)[C@@H](CC(C)C)C(=O)N[C@@H](C)C(=O)N[C@H](C)C(=O)N(C)[C@@H](CC(C)C)C(=O)N(C)[C@@H](CC(C)C)C(=O)N(C)[C@@H](C(C)CF)C(=O)N1C (some centres unmarked) [MeBMT 4-fluoro-MeVal Val]	47	69
C/C=C/C[C@@H](C)[C@@H](O)[C@H]1C(=O)N[C@@H](CC)C(=O)N(C)CC(=O)N(C)[C@@H](CC(C)C)C(=O)N[C@@H](C(C)CF)C(=O)N(C)[C@@H](CC(C)C)C(=O)N[C@@H](C)C(=O)N[C@H](C)C(=O)N(C)[C@@H](CC(C)C)C(=O)N(C)[C@@H](CC(C)C)C(=O)N(C)[C@@H](C(C)C)C(=O)N1C (stereo partly drawn) [MeBMT MeVal 4-fluoro-Val, Cyclo[-((2S,3R,4R,6E)-3-hydroxy-4-methyl-2-methylamino-6-octenoyl)-L-2-aminobutyryl-sarcosyl-N-methyl-L-Leucyl-4-fluoro-valyl-N-methyl-L-leucyl-L-alanyl-D-alanyl-N-methyl-L-Leucyl-N-methyl-L-leucyl-N-methyl-L-valyl]]	144	232
CCCC[C@@H](C)[C@@H](O)[C@H]1C(=O)N[C@@H](CC)C(=O)N(C)CC(=O)N(C)[C@@H](CC(C)C)C(=O)N[C@@H](C(C)CF)C(=O)N(C)[C@@H](CC(C)C)C(=O)N[C@@H](C)C(=O)N[C@H](C)C(=O)N(C)[C@@H](CC(C)C)C(=O)N(C)[C@@H](CC(C)C)C(=O)N(C)[C@@H](C(C)C)C(=O)N1C (some centres unmarked) [dihydroMeBMT MeVal 4-fluoro-Val] (cyclo(A[dA][NMeL][NMeL][NMeV][NMe(dihydroBmt)][Abu][Sar][NMeL][X1][NMeL]))	163	239
